{"sequences": {"note": "The chains behind the UniProt entries cited, without tags or fusion partners. Residues count along the entry.", "UniProt P08575, residues 26-577": "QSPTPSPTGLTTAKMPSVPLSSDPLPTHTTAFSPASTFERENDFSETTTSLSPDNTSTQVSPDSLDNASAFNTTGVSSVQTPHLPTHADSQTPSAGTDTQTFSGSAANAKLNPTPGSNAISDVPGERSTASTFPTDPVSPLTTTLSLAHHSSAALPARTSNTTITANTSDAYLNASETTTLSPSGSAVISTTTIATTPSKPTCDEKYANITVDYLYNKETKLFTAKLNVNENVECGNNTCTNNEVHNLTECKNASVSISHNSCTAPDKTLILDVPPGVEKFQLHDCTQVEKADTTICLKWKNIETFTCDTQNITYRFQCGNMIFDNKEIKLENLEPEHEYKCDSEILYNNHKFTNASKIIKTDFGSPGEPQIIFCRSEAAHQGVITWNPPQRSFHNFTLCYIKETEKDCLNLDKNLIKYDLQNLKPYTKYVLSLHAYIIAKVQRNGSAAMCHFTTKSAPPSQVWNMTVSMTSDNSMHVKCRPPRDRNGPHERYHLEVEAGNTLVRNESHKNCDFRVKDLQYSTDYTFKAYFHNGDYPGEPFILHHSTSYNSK", "UniProt P20138, residues 18-259": "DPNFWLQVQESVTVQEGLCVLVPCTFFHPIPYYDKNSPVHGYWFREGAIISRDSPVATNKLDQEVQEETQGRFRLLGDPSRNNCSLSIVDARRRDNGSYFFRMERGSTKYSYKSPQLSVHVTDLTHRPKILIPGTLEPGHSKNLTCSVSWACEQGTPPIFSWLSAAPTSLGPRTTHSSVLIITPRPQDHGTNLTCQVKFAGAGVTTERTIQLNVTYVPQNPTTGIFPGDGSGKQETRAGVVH"}, "source": "paper doi:10.1101/2025.07.28.667311", "target": "recombinant human CD45 (human) (UniProt P08575)", "assay": "ELISA", "note": "These are yes or no findings as the source states them, for the method shown. Some entries that bind do so weakly or less than the wild type."}
{"substance": "recombinant hCD33-Fc (from UniProt P20138 18-259) (Fc fusion)", "values": [{"measurement": "binding", "value": "binds"}]}
